Only a part is listed here, and it is no random draw.
Compound: COC(=O)C#Cc1ccccc1 [methyl 3-phenylpropiolate]
Test: log2 ratio of iodoacetamide-alkyne labeling of the cysteine site, DMSO over compound (competition); higher = stronger covalent engagement of the cysteine by the compound, active = 1 or more
Settings: 500 µM; treatment time 1 h; system: HEK293T cell lysate
Method in brief: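 Electrophile (500 µM) or vehicle was added to HEK293T lysate (2 mg/mL) for 1 h at ambient temperature before iodoacetamide alkyne labelling (1 h) and click coupling to sCIP-TMT reagents. After pooling, overnight trypsin digestion at 37 °C, streptavidin enrichment and acid elution, peptides were measured by Orbitrap Eclipse LC-MS/MS with FAIMS and quantified in FragPipe. Each cysteine's log2 competition ratio compares mean control-channel with mean compound-channel reporter intensity, control over compound. Data came from duplicate channels across three replicates, excluding cysteines quantified in only one replicate.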

The chains behind the UniProt entries cited, without tags or fusion partners. Where a name states a change or a piece, a line headed by the entry shows the natural chain unless it says otherwise.
UniProt P55265: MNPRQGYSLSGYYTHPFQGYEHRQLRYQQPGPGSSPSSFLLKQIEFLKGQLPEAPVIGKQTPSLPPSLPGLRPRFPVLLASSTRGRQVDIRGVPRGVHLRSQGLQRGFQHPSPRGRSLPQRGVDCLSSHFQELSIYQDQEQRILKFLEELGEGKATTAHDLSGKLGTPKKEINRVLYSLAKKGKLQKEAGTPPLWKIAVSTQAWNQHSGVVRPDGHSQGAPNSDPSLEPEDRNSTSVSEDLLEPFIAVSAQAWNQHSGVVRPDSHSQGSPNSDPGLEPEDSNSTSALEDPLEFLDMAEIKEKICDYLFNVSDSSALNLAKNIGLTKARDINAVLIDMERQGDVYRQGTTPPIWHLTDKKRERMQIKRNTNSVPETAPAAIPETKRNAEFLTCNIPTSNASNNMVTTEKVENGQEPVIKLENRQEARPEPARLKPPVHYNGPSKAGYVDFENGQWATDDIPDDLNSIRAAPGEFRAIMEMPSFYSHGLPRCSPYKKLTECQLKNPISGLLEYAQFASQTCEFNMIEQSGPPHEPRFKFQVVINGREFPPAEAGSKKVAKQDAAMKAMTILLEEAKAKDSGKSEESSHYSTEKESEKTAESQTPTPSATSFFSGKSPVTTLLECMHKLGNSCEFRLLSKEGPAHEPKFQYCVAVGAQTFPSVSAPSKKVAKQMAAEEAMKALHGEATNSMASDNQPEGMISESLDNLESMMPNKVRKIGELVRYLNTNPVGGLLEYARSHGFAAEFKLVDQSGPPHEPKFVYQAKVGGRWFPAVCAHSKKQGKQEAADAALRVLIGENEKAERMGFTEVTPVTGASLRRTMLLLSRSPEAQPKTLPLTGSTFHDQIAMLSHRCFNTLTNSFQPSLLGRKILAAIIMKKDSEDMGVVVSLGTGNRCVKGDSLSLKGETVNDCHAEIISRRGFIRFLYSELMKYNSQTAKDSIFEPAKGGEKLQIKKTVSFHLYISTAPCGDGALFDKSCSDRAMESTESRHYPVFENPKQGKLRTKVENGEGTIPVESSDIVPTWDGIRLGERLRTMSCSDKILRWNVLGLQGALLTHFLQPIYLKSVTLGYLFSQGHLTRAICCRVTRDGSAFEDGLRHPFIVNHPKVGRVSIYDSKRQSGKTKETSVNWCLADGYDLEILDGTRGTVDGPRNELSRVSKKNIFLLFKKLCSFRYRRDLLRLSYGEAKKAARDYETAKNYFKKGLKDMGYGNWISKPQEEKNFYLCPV
UniProt P60468, whole entry: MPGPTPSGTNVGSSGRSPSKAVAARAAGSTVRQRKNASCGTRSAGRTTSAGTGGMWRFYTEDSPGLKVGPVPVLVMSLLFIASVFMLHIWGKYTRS
UniProt P54577: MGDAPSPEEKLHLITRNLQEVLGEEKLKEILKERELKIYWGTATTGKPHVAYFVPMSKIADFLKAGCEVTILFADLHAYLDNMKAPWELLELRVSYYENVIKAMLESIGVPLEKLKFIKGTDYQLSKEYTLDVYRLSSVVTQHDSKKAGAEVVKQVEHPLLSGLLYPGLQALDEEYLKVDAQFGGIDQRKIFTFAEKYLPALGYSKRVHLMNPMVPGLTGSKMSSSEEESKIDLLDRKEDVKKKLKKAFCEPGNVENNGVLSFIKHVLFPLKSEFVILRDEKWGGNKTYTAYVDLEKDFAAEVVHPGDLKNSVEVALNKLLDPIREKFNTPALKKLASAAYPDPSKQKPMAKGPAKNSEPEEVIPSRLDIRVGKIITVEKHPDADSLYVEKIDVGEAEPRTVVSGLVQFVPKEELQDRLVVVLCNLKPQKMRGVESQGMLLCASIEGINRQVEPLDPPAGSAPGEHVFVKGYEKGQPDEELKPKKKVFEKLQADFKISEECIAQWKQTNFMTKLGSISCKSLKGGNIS
UniProt P54886: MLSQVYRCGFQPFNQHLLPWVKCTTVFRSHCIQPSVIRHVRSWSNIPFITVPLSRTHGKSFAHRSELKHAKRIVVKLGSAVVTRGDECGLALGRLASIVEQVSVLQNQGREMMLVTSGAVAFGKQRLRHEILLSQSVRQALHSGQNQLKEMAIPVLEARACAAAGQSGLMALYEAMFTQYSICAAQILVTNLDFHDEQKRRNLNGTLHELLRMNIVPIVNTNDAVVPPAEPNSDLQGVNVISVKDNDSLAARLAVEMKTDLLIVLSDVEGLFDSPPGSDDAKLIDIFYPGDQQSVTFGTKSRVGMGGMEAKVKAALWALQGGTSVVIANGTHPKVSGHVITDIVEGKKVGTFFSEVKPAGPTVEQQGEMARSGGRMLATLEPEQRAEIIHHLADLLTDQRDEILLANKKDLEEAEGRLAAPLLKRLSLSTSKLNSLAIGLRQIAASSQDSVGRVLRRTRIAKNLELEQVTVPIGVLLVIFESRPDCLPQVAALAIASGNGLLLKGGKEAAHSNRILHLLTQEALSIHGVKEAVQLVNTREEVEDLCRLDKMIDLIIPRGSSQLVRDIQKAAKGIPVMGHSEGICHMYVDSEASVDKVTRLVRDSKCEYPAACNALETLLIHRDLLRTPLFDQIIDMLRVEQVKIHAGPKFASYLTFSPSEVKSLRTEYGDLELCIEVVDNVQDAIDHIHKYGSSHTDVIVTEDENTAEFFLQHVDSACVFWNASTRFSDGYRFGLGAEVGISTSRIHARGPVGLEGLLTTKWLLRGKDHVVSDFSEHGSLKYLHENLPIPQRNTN
UniProt P54105: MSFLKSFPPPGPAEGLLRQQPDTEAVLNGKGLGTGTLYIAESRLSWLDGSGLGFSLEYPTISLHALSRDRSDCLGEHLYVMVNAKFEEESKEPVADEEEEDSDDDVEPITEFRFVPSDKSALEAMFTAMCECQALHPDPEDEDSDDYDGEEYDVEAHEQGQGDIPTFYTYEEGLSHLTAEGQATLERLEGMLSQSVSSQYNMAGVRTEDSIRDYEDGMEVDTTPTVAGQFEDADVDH
UniProt P55060: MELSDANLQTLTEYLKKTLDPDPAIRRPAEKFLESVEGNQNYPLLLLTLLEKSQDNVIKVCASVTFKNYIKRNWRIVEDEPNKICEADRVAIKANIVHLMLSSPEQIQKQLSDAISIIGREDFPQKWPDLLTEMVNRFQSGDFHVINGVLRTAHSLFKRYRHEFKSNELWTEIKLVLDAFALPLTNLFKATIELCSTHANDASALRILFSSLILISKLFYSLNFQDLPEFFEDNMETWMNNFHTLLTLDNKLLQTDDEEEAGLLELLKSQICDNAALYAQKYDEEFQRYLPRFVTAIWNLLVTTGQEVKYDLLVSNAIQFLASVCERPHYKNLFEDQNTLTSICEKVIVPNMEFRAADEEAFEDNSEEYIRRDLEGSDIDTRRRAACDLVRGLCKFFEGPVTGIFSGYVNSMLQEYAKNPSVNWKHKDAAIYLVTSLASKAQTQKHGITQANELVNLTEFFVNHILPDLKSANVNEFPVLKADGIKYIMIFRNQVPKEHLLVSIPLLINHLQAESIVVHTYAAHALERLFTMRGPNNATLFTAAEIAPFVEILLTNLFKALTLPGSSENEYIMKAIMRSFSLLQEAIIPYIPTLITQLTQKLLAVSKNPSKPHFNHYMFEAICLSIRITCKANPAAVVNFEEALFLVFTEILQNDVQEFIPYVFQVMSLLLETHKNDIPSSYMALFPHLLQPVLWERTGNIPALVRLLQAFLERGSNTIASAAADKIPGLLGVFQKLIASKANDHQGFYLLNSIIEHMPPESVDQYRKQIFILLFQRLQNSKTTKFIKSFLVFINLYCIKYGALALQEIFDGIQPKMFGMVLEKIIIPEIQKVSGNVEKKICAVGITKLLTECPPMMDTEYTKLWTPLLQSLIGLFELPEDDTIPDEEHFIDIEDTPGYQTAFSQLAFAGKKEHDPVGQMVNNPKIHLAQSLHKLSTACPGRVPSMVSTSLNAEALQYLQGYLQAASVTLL
UniProt P52732: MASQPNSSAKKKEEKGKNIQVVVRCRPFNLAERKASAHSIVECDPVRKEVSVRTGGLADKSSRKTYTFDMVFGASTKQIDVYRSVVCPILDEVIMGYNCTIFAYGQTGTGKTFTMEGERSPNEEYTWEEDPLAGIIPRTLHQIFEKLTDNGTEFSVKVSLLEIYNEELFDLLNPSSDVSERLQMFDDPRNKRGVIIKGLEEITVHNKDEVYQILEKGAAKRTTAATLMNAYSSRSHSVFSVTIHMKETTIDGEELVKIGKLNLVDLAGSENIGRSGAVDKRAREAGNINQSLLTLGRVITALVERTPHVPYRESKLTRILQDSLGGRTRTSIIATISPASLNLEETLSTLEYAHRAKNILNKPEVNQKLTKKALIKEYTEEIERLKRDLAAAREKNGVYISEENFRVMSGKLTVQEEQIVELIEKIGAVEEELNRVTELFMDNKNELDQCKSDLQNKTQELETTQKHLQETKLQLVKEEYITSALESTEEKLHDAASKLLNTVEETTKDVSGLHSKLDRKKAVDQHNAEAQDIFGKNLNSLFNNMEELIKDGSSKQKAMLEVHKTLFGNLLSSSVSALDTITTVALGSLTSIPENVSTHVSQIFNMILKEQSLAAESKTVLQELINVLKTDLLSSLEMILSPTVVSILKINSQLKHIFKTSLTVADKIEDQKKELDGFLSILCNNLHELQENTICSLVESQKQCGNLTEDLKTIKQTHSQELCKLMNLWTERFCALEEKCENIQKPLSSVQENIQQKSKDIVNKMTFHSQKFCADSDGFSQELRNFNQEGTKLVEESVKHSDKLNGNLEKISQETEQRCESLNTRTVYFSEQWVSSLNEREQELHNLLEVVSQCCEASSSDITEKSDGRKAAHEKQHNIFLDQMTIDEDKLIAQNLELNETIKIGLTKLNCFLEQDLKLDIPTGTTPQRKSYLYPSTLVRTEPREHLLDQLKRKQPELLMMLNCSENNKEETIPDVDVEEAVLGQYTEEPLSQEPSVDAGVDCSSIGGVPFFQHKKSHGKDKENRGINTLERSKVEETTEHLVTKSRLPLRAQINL
UniProt P53701: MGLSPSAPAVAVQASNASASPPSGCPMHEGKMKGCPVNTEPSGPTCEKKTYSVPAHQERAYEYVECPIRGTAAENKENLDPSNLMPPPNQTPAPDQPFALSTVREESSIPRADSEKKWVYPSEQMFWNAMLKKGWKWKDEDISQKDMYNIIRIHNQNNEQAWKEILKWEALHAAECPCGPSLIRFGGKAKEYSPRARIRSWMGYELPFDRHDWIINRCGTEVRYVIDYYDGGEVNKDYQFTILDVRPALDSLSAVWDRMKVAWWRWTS
UniProt P61163, whole entry, looked up: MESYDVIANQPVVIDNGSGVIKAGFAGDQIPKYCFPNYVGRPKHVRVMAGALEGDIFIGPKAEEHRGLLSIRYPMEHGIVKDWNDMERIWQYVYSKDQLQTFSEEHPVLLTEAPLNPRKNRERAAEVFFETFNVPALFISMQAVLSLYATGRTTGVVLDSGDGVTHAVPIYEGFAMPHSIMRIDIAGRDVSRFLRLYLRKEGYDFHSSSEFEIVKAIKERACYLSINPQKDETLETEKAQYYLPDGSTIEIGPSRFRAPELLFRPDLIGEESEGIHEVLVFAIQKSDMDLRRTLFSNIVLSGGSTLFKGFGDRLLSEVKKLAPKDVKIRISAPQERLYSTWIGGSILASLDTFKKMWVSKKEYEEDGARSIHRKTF
UniProt P52272: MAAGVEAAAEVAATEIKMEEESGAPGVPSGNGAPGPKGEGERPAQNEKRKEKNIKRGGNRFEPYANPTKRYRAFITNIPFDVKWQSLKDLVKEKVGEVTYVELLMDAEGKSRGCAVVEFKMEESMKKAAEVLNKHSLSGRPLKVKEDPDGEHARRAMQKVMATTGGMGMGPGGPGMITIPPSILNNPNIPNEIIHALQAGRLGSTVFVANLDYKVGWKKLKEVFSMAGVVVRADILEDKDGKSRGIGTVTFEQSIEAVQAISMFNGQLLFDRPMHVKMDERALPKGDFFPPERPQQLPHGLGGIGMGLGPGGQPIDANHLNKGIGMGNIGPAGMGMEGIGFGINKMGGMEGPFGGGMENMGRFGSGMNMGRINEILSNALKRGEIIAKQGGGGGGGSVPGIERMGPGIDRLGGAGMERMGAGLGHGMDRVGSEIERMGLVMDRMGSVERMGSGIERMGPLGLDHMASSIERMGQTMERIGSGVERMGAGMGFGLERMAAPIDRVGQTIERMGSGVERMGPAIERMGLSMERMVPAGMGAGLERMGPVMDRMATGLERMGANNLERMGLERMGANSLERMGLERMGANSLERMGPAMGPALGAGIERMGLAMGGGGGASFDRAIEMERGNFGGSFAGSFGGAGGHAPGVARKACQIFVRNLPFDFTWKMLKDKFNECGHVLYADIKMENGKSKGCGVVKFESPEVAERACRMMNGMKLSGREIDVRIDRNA
UniProt P54920: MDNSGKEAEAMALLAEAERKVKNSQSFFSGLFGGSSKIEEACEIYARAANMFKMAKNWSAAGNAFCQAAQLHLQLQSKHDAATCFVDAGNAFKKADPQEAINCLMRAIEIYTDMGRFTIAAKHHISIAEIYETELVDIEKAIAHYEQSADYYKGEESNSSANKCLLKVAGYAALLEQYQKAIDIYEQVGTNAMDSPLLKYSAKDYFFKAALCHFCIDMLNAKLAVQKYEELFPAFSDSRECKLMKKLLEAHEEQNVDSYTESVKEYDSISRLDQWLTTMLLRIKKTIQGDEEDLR

Row | Target | log2 ratio of iodoacetamide-alkyne labeling
1 | ADAR C304 (UniProt P55265) | inactive: 0.277
2 | ADK C353 (UniProt P55263) | inactive: 0.274
3 | UniProt P62241_C174 | inactive: -0.238
4 | SEC61B C39 (UniProt P60468) | inactive: 0.555
5 | UniProt P62241_C100 | inactive: 0.0677
6 | YARS C250 (UniProt P54577) | inactive: 0.0441
7 | ALDH18A1 C606 (UniProt P54886) | inactive: 0.31
8 | CLNS1A C73 (UniProt P54105) | inactive: 0.45
9 | CSE1L C344 (UniProt P55060) | inactive: 0.483
10 | KPNA2 C133 (UniProt P52292) | inactive: 0.525
11 | ADAR C519 (UniProt P55265) | inactive: 0.129
12 | KIF11 C819 (UniProt P52732) | inactive: 0.437
13 | AK2 C40 (UniProt P54819) | inactive: 0.0385
14 | KIF11 C450 (UniProt P52732) | inactive: 0.0207
15 | HCCS C66 (UniProt P53701) | inactive: 0.724
16 | UniProt P61163_C34 | inactive: 0.205
17 | UniProt P61927_C19 | inactive: -0.0866
18 | COPB1 C248 (UniProt P53618) | inactive: -0.00654
19 | HADHB C435 (UniProt P55084) | inactive: 0.735
20 | HNRNPM C653 (UniProt P52272) | inactive: 0.0149
21 | HADHB C458 (UniProt P55084) | inactive: 0.492
22 | NAPA C103 (UniProt P54920) | inactive: -0.122

A second format for some results above.
Row	Target	log2 ratio of iodoacetamide-alkyne labeling
16	UniProt P61163_C34	inactive: 0.205
17	UniProt P61927_C19	inactive: -0.0866

— the supplement of paper PMC11006884
